PubChem BioAssay AID652259, Drosophila RNAi Screening Center – 2013

Screen: 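Genome-wide hunt for genes that control Wingless pathway activity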 (primary screen)
System: Drosophila clone 8 imaginal disc epithelial cells
Reagent: long dsRNA against Drosophila genes
Challenge: pathway stimulated by co-transfected Wingless expression plasmid
Detection: 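Firefly luciferase from a tcf-site Wingless reporter, measured alongside co-transfected Renilla luciferase that tracks transfection; pathway stimulated by a Wingless plasmid; the firefly-to-Renilla ratio is not deposited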
Scale: firefly reporter light: higher = more Wg reporter light, before normalisation; Renilla control light: higher = more transfected or surviving cells
Hit rule: 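Strong candidates differ from their plate mean by at least two out of four per-plate statistical tests; weak candidates meet just one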
Meaning of the calls: active = candidate regulator (raises or lowers reporter); inactive = not a candidate
In all, the deposit lists about 22,000 reagents; this is a random part of those that have a named target and a result. In the full data, 233 (1.1%) were called active. 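Light values are raw, unnormalised plate reads; the ratio scores behind the reporter calls were not deposited.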 A plus sign joins genes that one reagent is predicted to hit. Not given: the amount of reagent, the time to read-out, the dose of the treatment.

Target gene	amplicon	firefly reporter light, replicate 1	firefly reporter light, replicate 2	Renilla control light, replicate 1	Renilla control light, replicate 2	Call
Nmdar1	DRSC12071	3745		1867		inactive
Nmdar1	DRSC12356	9302		2553		inactive
CG4839	DRSC02783	7204		2976		inactive
CG4839	DRSC02784	2541	4667	1179	2817	inactive
ND-B18	DRSC19947	22134		9172		inactive
bbx + waw	DRSC20575	3445	6829	1273	2537	inactive
bbx + waw	DRSC20589	9026		6332		inactive
CG34051	DRSC01739	19747		20764		inactive
CG5326	DRSC13568	2536		1244		inactive
CG5326	DRSC15770	3282	6646	1562	1866	inactive
CG15098	DRSC06527	6120		2464		inactive
CG15533	DRSC15069	7168		2755		inactive
CG17198 + CG17197	DRSC15190	30727		20041		inactive
CG17198 + CG17197	DRSC15191	20642		15092		inactive
Sas-6	DRSC15061	7802		3026		inactive
MFS16	DRSC04051	3525	7548	832	3069	inactive
Lkr	DRSC09754	1088	4305	1161	3488	inactive
Psc	DRSC07518	5925		1732		inactive
srw	DRSC08201	4763		1869		inactive

Limited to “firefly reporter light, replicate 2” (2 entries from above):
MFS16 [DRSC04051]	7548
Lkr [DRSC09754]	4305

Further records:
Target gene	amplicon	firefly reporter light, replicate 1	firefly reporter light, replicate 2	Renilla control light, replicate 1	Renilla control light, replicate 2	Call
sut2	DRSC07701	7116		1920		inactive
CG12699	DRSC06162	9780		2449		inactive
Gli	DRSC03332	2972	4992	1011	2765	inactive
CG8326	DRSC20103	2363	7088	924	2869	inactive
Rpn5	DRSC12367	6912		1812		inactive
CG10151	DRSC05974	10247		4148		inactive
CG11791	DRSC14391	3067	6375	1395	1924	inactive
CG9662	DRSC00723	4528	6999	1932	1257	inactive
Orct2	DRSC14613	1498	5405	856	1523	inactive
ltl	DRSC10206	1925	8308	893	2902	inactive
ltl	DRSC10870	1124	5260	993	2304	inactive
